Data as given in PubChem BioAssay AID1259425 (University of Nebraska Medical Center, 2018)

Screen: 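Seek colon cancer weak points whose silencing resembles KSR1 loss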 (primary screen)
Cell system: HCT116 human colon cancer cells
Reagents: siRNA pool against human genes, 50 nM siRNA
Measurement: 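After 50 nM siRNA pool, branched-DNA assay measures six marker transcripts per well, minus blank, normalised to the geometric mean of two housekeeping transcripts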
Direction: BNIP3L mRNA: higher = more BNIP3L transcript after knockdown; NDRG1 mRNA: higher = more NDRG1 transcript after knockdown; BNIP3 mRNA: higher = more BNIP3 transcript after knockdown; ALDOC mRNA: higher = more ALDOC transcript after knockdown; ACSL5 mRNA: higher = more ACSL5 transcript after knockdown
Here is a random part of about 14,000 reagents. Not given: the time to read-out.

gene | BNIP3L mRNA, set 1 | NDRG1 mRNA, set 1 | BNIP3 mRNA, set 1 | ALDOC mRNA, set 1 | ACSL5 mRNA, set 1
DEK | 0.0957 | 0.183 | 0.286 | 0.0174 | 0.285
ITGAD | 0.167 | 0.549 | 0.468 | 0.0544 | 0.183
ANXA2 | 0.078 | 0.123 | 0.227 | 0.0102 | 0.194
CYP20A1 | 0.124 | 0.174 | 0.308 | 0.0873 | 0.727
MPND | 0.286 | 0.365 | 0.468 | 0.0297 | 0.246
KRT81 | 0.0713 | 0.089 | 0.228 | 0.0203 | 0.0666
TNIP2 | 0.224 | 0.387 | 0.343 | 0.0458 | 0.282
JPT2 | 0.129 | 0.194 | 0.212 | 0.0444 | 0.231
APOC3 | 0.138 | 0.113 | 0.189 | 0.0253 | 0.266
SEPTIN3 | 0.14 | 0.184 | 0.367 | 0.00968 | 0.171
CMC2 | 0.167 | 0.22 | 0.415 | 0.0141 | 0.157

Continued, starting with the last 4 of the part before.
gene | BNIP3L mRNA, set 1 | NDRG1 mRNA, set 1 | BNIP3 mRNA, set 1 | ALDOC mRNA, set 1 | ACSL5 mRNA, set 1
JPT2 | 0.129 | 0.194 | 0.212 | 0.0444 | 0.231
APOC3 | 0.138 | 0.113 | 0.189 | 0.0253 | 0.266
SEPTIN3 | 0.14 | 0.184 | 0.367 | 0.00968 | 0.171
CMC2 | 0.167 | 0.22 | 0.415 | 0.0141 | 0.157
VIM | 0.0443 | 0.263 | 0.263 | 0.0178 | 0.15
INTS1 | 0.0689 | 0.801 | 0.382 | 0.114 | 0.254
DMRTC1 | 0.129 | 0.421 | 0.325 | 0.0334 | 0.244
GNL3 | 0.101 | 0.625 | 0.783 | 0.0106 | 0.287
RNF6 | 0.0677 | 0.113 | 0.231 | 0.0147 | 0.106
SCD | 0.0857 | 0.931 | 0.188 | 0.0364 | 0.147
ABLIM2 | 0.127 | 0.23 | 0.292 | 0.0696 | 0.105
COX6A1 | 0.0686 | 0.161 | 0.283 | 0.016 | 0.16
PPP5C | 0.0857 | 0.28 | 0.315 | 0.0232 | 0.336
DAGLA | 0.109 | 0.391 | 0.188 | 0.0371 | 0.101
VEGFC | 0.0663 | 0.258 | 0.269 | 0.0416 | 0.21
ADGRE3 | 0.173 | 0.176 | 0.282 | 0.0241 | 0.259
CRYGB | 0.0755 | 0.0643 | 0.213 | 0.0282 | 0.115
HACE1 | 0.171 | 0.197 | 0.192 | 0.059 | 0.219
WWP1 | 0.0613 | 0.0706 | 0.31 | 0.0135 | 0.0702
SEMA3C | 0.141 | 0.277 | 0.314 | 0.0197 | 0.165
OR1F1 | 0.177 | 0.144 | 0.238 | 0.0306 | 0.238
MGC40069 (retired record) | 0.172 | 1.52 | 0.292 | 0.1 | 0.259
DPYSL2 | 0.0633 | 0.22 | 0.219 | 0.0331 | 0.0769
CARD10 | 0.044 | 0.0609 | 0.126 | 0.00477 | 0.0775
SCN4A | 0.149 | 0.22 | 0.349 | 0.0163 | 0.162
ARMCX5 | 0.129 | 0.142 | 0.401 | 0.0193 | 0.209
MYO3B | 0.106 | 0.0357 | 0.2 | 0.0224 | 0.169
